In PMC7156728:

Tests used:
[1] = target: T1, C-reactive protein (CRP) (human) (UniProt P02741); assay: pull-down; purified CRP (40 µg/ml; 100 µg/ml in Fig. 1b) or vehicle added to human plasma (hirudin) or serum, incubated with MSU crystals at 37 °C; crystals washed with urate-saturated HBSS (Ca2+, Mg2+); bound proteins eluted in SDS buffer; Western blot; only the target purified
T1 sequence: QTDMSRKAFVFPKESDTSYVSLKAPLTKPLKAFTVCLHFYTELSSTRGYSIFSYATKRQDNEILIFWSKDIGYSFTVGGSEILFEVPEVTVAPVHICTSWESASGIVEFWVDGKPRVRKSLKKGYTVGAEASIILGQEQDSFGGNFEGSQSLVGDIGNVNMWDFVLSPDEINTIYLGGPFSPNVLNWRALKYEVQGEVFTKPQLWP

[2] = target: T1, C-reactive protein (CRP) (human); assay: pull-down; purified CRP (40 µg/ml) or vehicle added to human plasma of three donors, incubated with phosphorylcholine-agarose (PC-agarose) at 37 °C; washed with HBSS (Ca2+, Mg2+); bound proteins eluted in SDS buffer; Western blot; only the target purified

| Substance | binding [1] | binding [2] |
| --- | --- | --- |
| complement component C1r (human (endogenous in serum and plasma)) (enzyme) | binds | binds |
| complement component C1s (human (endogenous in serum and plasma)) (enzyme) | binds | binds |

These are yes or no findings as the source states them, for the method shown. In cells and extracts the contact can be indirect. Binding can be weak; no strength is given.
